Reference: patent US20140296064A1, “PESTICIDAL METHODS USING SUBSTITUTED 3-PYRIDYL THIAZOLE COMPOUNDS AND DERIVATIVES FOR COMBATING ANIMAL PESTS I” (BASF SE, priority 2011, published 2014)
Some results were stated once for a whole list of compounds, not compound by compound. At least one compound was matched to its structure with a doubt left.

What was measured:
Type in all cases: in vivo
[1] = test system: Silverleaf Whitefly (bemisia argentifolii); assay: Silverleaf whitefly cotton plant spray test; details: 500 ppm; cotton plants sprayed; whitefly adults; assessed 3 days after treatment
Text: B.5 Silverleaf Whitefly (bemisia argentifolii)
The active compounds were formulated in cyclohexanone as a 10,000 ppm solution supplied in tubes. The tubes were inserted into an automated electrostatic sprayer equipped with an atomizing nozzle and they serve as stock solutions for which lower dilutions are made in 50% acetone: 50% water (v/v). A nonionic surfactant (Kinetic®) was included in the solution at a volume of 0.01% (v/v).
Cotton plants at the cotyledon stage (one plant per pot) were sprayed by an automated electrostatic plant sprayer equipped with an atomizing spray nozzle. The plants were dried in the sprayer fume hood and then removed from the sprayer. Each pot was placed into a plastic cup and about 10 to 12 whitefly adults (approximately 3-5 days old) were introduced. The insects were collected using an aspirator and a nontoxic Tygon® tubing connected to a barrier pipette tip. The tip, containing the collected insects, were then gently inserted into the soil containing the treated plant, allowing insects to crawl out of the tip to reach the foliage for feeding. Cups were covered with a reusable screened lid. Test plants were maintained in a growth room at about 25° C. and about 20-40% relative humidity for 3 days, avoiding direct exposure to fluorescent light (24 hour photoperiod) to prevent trapping of heat inside the cup. Mortality was assessed 3 days after treatment, compared to untreated control plants.

[2] = test system: Cowpea Aphid (Aphis craccivora); assay: Cowpea aphid potted plant spray test; details: 500 ppm; potted cowpea plants sprayed; population reduction assessed after 24, 72 and 120 hours
Protocol: B.4 Cowpea Aphid (Aphis craccivora)
The active compound was dissolved at the desired concentration in a mixture of 1:1 (vol:vol) distilled water: acetone. The test solution was prepared at the day of use.
Potted cowpea plants colonized with approximately 100-150 aphids of various stages were sprayed after the pest population had been recorded. Population reduction was assessed after 24, 72, and 120 hours.

[3] = test system: Cotton aphid (Aphis gossypi); assay: Cotton aphid cotyledon dip test; details: 500 ppm; cotton cotyledons dipped; mortality counts after 5 days
Text: B.3 Cotton aphid (Aphis gossypi)
The active compounds were formulated in 50:50 (vol:vol) acetone: water and 100 ppm Kinetica™ surfactant.
Cotton plants at the cotyledon stage (one plant per pot) were infested by placing a heavily infested leaf from the main colony on top of each cotyledon. The aphids were allowed to transfer to the host plant overnight, and the leaf used to transfer the aphids was removed. The cotyledons were dipped in the test solution and allowed to dry. After 5 days, mortality counts were made.

[4] = test system: Green Peach Aphid (Myzus persicae); assay: Green peach aphid artificial diet test (systemic); details: 500 ppm; in aphid diet under artificial membrane; assessed after 3 days
Text: B.2 Green Peach Aphid (Myzus persicae)
For evaluating control of green peach aphid (Myzus persicae) through systemic means the test unit consisted of 96-well-microtiter plates containing liquid artificial diet under an artificial membrane.
The compounds were formulated using a solution containing 75% v/v water and 25% v/v DMSO. Different concentrations of formulated compounds were pipetted into the aphid diet, using a custom built pipetter, at two replications. After application, 5-8 adult aphids were placed on the artificial membrane inside the microtiter plate wells. The aphids were then allowed to suck on the treated aphid diet and were incubated at about 23±1° C. and about 50±5% relative humidity for 3 days. Aphid mortality and fecundity was then visually assessed.

[5] = test system: Vetch aphid (Megoura viciae); assay: Vetch aphid leaf disk spray test (contact or systemic); details: 800 ppm; sprayed broad bean leaf disks; assessed after 5 days
Protocol: B.1 Vetch aphid (Megoura viciae)
For evaluating control of vetch aphid (Megoura viciae) through contact or systemic means the test unit consisted of 24-well-microtiter plates containing broad bean leaf disks.
The compounds were formulated using a solution containing 75% v/v water and 25% v/v DMSO. Different concentrations of formulated compounds were sprayed onto the leaf disks at 2.5 μl, using a custom built micro atomizer, at two replications. After application, the leaf disks were air-dried and 5-8 adult aphids were placed on the leaf disks inside the microtiter plate wells. The aphids were then allowed to suck on the treated leaf disks and were incubated at about 23±1° C. and about 50±5% relative humidity for 5 days. Aphid mortality and fecundity were then visually assessed.

Measured: mortality in comparison with untreated controls

CN(C)C(=O)c1sc(-c2cncc(F)c2)nc1Cl [C.12]
at least 75%: [1] | [2] | [3]

CN(C)C(=S)c1sc(-c2cccnc2)nc1Cl [C.13]
at least 75%: all assays above

CCNC(=O)c1sc(-c2cncc(F)c2)nc1Cl [C.14]
at least 75%: all assays above

CN(C)C(=S)c1sc(-c2cncc(F)c2)nc1Cl [C.15]
at least 75%: all assays above

CN(C(=O)c1sc(-c2cccnc2)nc1Cl)c1ccccc1 [C.16]
at least 75%: all assays above

CN(C(=O)c1sc(-c2cncc(F)c2)nc1Cl)c1ccccc1 [C.17]
not listed: [5]
at least 75%: all other assays above

CN(C(=S)c1sc(-c2cncc(F)c2)nc1Cl)c1ccccc1 [C.18]
not listed: [5]
at least 75%: all other assays above

CCSCCN(CC)C(=O)c1sc(-c2cccnc2)nc1Cl [C.19]
at least 75%: [1] | [2] | [5]

CCN(CC[S+]([O-])CC)C(=O)c1sc(-c2cccnc2)nc1Cl (stereo not drawn) [C.20]
at least 75%: [2] | [5]
